Assay results from the supplement of paper PMC7830784.
Where a name gives a salt, the structure may show the parent alone. Some of the results follow. Most values lie within the scatter of the assay; repeated measurements hardly agree. Residues, ends and D or L forms follow the SMILES beside them.

Tested on: Brugia pahangi adult female
Assay: motility inhibition on day 3 relative to DMSO vehicle; higher = more active
Conditions: 10 µM; 3 days

Oc1c(Cl)cc(Cl)c2cccnc12 [chloroxine] was tested. Which “motility inhibition on day 3” value did it give?
Its value is 84.5%.

How did the “motility inhibition on day 3” value turn out when c1ccc(-c2ccc(C(c3ccccc3)n3ccnc3)cc2)cc1 (centres undefined) [bifonazole] was run?
Its value is 24%.

COC(=O)C1=C(C)NC(C)=C(C(=O)OC(C)(C)CN(C)CCC(c2ccccc2)c2ccccc2)C1c1cccc([N+](=O)[O-])c1 (centres undefined) [Lercanidipine] was tested. Which “motility inhibition on day 3” value did it give?
Its value is 99.9%.

How did the “motility inhibition on day 3” value turn out when CCC1(c2ccccc2)C(=O)NCNC1=O [Primidone] was run?
Its value is less than 0%.

CC(=O)OC[C@H]1O[C@@H]([S-])[C@H](OC(C)=O)[C@@H](OC(C)=O)[C@@H]1OC(C)=O.CCP(CC)CC.[Au+] [Auranofin] was tested. Which “motility inhibition on day 3” value did it give?
Its value is 99.8%.

With COC(=O)[C@H](Cc1ccccc1)NC(=O)[C@@H](N)CC(=O)O [aspartame] (H-Asp-Phe-OMe) as the molecule, how does the “motility inhibition on day 3” value read?
Its value is 15.6%.

For CO/N=C(\C(=O)N[C@@H]1C(=O)N2C(C(=O)O)=C(COC(C)=O)CS[C@H]12)c1csc(N)n1 [cefotaxime sodium], which “motility inhibition on day 3” value is on record?
Its value is 8.33%.

With C[C@]12CC[C@@H]3c4ccc(O)cc4C[C@@H](CCCCCCCCC[S+]([O-])CCCC(F)(F)C(F)(F)F)[C@H]3[C@@H]1CC[C@@H]2O (some centres undefined) [fulvestrant] as the molecule, how does the “motility inhibition on day 3” value read?
The value was 5.94%.

Which “motility inhibition on day 3” value does the source give for C[C@]12CC[C@@H]3c4ccc(O)cc4C[C@@H](CCCCCCCCC[S+]([O-])CCCC(F)(F)C(F)(F)F)[C@H]3[C@@H]1CC[C@@H]2O (some centres undefined) [Fulvestrant] here?
The value was 35.9%.

COc1cc(CNC(=O)CCCC/C=C/C(C)C)ccc1O [e-capsaicin] was tested. Which “motility inhibition on day 3” value did it give?
Its value is 12.8%.

For O=C(NCCCN1CCOCC1)c1ccc(Cl)cc1 [eprobemide], which “motility inhibition on day 3” value is on record?
Its value is 4.51%.

With O=C(CCCl)NCCc1ccccc1 [fenaclon] as the molecule, how does the “motility inhibition on day 3” value read?
Its value is 46.8%.

How did the “motility inhibition on day 3” value turn out when Clc1ccc2nsnc2c1NC1=NCCN1 [Tizanidine hydrochloride] was run?
The value was 10.7%.

Which “motility inhibition on day 3” value does the source give for CC(C)Oc1ccc2c(=O)c(-c3ccccc3)coc2c1 [ipriflavone] here?
Its value is 23.5%.

For CC(=O)Nc1c(I)cc(I)c(C(=O)O)c1I [acetriazoic acid], which “motility inhibition on day 3” value is on record?
The value was less than 0%.

For Cc1cc2cc3c(C)cc(=O)oc3c(C)c2o1 [trioxsalen], which “motility inhibition on day 3” value is on record?
Its value is 5.24%.

CC(=O)Nc1nnc(S(N)(=O)=O)s1 [Acetazolamide] was tested. Which “motility inhibition on day 3” value did it give?
The value was less than 0%.

Which “motility inhibition on day 3” value does the source give for C[N+](C)(C)CC(O)CC(=O)[O-] (centres undefined) [carnitine hydrochloride] here?
The value was 17.9%.

With CCCCOc1cc(C(=O)OCCN(CC)CC)ccc1N [benoxinate hydrochloride] as the molecule, how does the “motility inhibition on day 3” value read?
Its value is less than 0%.

How did the “motility inhibition on day 3” value turn out when CCCCCCOc1ccccc1C(N)=O [exalamide] was run?
Its value is 35.7%.

With CCN(CC)CCNC(=O)c1ccc(N)cc1 [Procainamide hydrochloride] as the molecule, how does the “motility inhibition on day 3” value read?
Its value is less than 0%.

For NC[C@H](O)c1ccc(O)c(O)c1 [norepinephrine], which “motility inhibition on day 3” value is on record?
Its value is 14.7%.

For O=C(O)C1=C(CSc2nnnn2CS(=O)(=O)O)CS[C@@H]2[C@H](NC(=O)[C@H](O)c3ccccc3)C(=O)N12 [Cefonicid sodium], which “motility inhibition on day 3” value is on record?
The value was 21.5%.

How did the “motility inhibition on day 3” value turn out when O=C(O)C1=C(CSc2nnnn2CS(=O)(=O)O)CS[C@@H]2[C@H](NC(=O)[C@H](O)c3ccccc3)C(=O)N12 [cefonicid sodium] was run?
The value was 8.56%.

For Cc1ccc(-c2cc(C(F)(F)F)nn2-c2ccc(S(N)(=O)=O)cc2)cc1 [celecoxib], which “motility inhibition on day 3” value is on record?
The value was 6.27%.

With CC(C)[N+]1(C)[C@@H]2CC[C@H]1C[C@@H](OC(=O)C(CO)c1ccccc1)C2 (some centres undefined) [ipratropium bromide] as the molecule, how does the “motility inhibition on day 3” value read?
The value was 3.29%.

Which “motility inhibition on day 3” value does the source give for Nc1ccc(S(=O)(=O)Nc2nccs2)cc1 [sulfathiazole] here?
Its value is 2.68%.

How did the “motility inhibition on day 3” value turn out when CN[C@H]1CC[C@@H](c2ccc(Cl)c(Cl)c2)c2ccccc21 [sertraline hydrochloride] was run?
The value was 0.673%.

For CC[C@H]1OC(=O)[C@H](C)[C@@H](O[C@H]2C[C@@](C)(OC)[C@@H](O)[C@H](C)O2)[C@H](C)[C@@H](O[C@@H]2O[C@H](C)C[C@H](N(C)C)[C@H]2O)[C@](C)(O)C[C@@H](C)CN(C)[C@H](C)[C@@H](O)[C@]1(C)O [azithromycin], which “motility inhibition on day 3” value is on record?
The value was 1.48%.

Which “motility inhibition on day 3” value does the source give for NC[C@H]1O[C@H](O[C@H]2[C@H](O)[C@@H](O[C@H]3O[C@H](CO)[C@@H](O)[C@H](N)[C@H]3O)[C@H](N)C[C@@H]2N)[C@H](N)C[C@@H]1O [tobramycin] here?
The value was 3.84%.

How did the “motility inhibition on day 3” value turn out when C=CCOc1ccccc1OCC(O)CNC(C)C (centres undefined) [Oxprenolol hydrochloride] was run?
Its value is 2.97%.

For O=C(O)c1ccc[n+]([O-])c1 [oxiniacic acid], which “motility inhibition on day 3” value is on record?
Its value is 4.85%.

For CCOC(=O)/C=C(C)/C=C/C=C(C)/C=C/c1c(C)cc(OC)c(C)c1C [Etretinate], which “motility inhibition on day 3” value is on record?
The value was 12.1%.

How did the “motility inhibition on day 3” value turn out when CCOC(=O)Nc1nc2ccccc2[nH]1 [lobendazole] was run?
Its value is 28.2%.

CC(=O)Nc1ccc(OC(=O)c2ccccc2O)cc1 [acetaminosalol] was tested. Which “motility inhibition on day 3” value did it give?
The value was less than 0%.

COc1cc2nc(N3CCN(C(=O)C4COc5ccccc5O4)CC3)nc(N)c2cc1OC (centres undefined) [doxazosin mesylate] was tested. Which “motility inhibition on day 3” value did it give?
Its value is 32.9%.

With O=C(CCBr)N1CCN(C(=O)CCBr)CC1 [pipobroman] as the molecule, how does the “motility inhibition on day 3” value read?
Its value is 1.2%.

For N[C@H]1CONC1=O [levcycloserine], which “motility inhibition on day 3” value is on record?
Its value is 19.3%.

With CCCCC1C(=O)N(c2ccccc2)N(c2ccc(O)cc2)C1=O (centres undefined) [oxyphenbutazone] as the molecule, how does the “motility inhibition on day 3” value read?
The value was 39%.

Which “motility inhibition on day 3” value does the source give for CC#CCn1c(N2CCC[C@@H](N)C2)nc2c1c(=O)n(Cc1nc(C)c3ccccc3n1)c(=O)n2C [linagliptin] here?
The value was 10.2%.

For CCN(CC)CCOCCOC(=O)C1(c2ccccc2)CCCC1 [Carbetapentane citrate], which “motility inhibition on day 3” value is on record?
The value was 18.3%.

Which “motility inhibition on day 3” value does the source give for Cc1cc(C(C)(C)C)cc(C)c1CC1=NCCN1 [xylometazoline hydrochloride] here?
Its value is 7.66%.

For CCN(CC)C(=O)C1(c2ccccc2)CC1CN (centres undefined) [milnacipran hydrochloride], which “motility inhibition on day 3” value is on record?
The value was 4.1%.

How did the “motility inhibition on day 3” value turn out when CCN(CCCCOC(=O)c1ccc(OC)c(OC)c1)C(C)Cc1ccc(OC)cc1 (centres undefined) [mebeverine hydrochloride] was run?
The value was 8.41%.

How did the “motility inhibition on day 3” value turn out when CC(C)(CO)[C@@H](O)C(=O)NCCC(=O)O [pantothenic acid(d) na salt] was run?
The value was less than 0%.

O=P(O)(O)C(O)(Cn1ccnc1)P(=O)(O)O [Zoledronic acid] was tested. Which “motility inhibition on day 3” value did it give?
The value was less than 0%.

CC#C[C@]1(O)CC[C@H]2[C@@H]3CCC4=CC(=O)CCC4=C3[C@@H](c3ccc(N(C)C)cc3)C[C@@]21C [mifepristone] was tested. Which “motility inhibition on day 3” value did it give?
The value was 2.32%.

Which “motility inhibition on day 3” value does the source give for COc1ccc(Cl)cc1C(=O)NCCc1ccc(S(=O)(=O)NC(=O)NC2CCCCC2)cc1 [Glibenclamide] here?
The value was 14.2%.

Nc1nc(=O)n([C@@H]2CS[C@H](CO)O2)cc1F [Emtricitabine] was tested. Which “motility inhibition on day 3” value did it give?
The value was 9.46%.

How did the “motility inhibition on day 3” value turn out when CCCOc1ccccc1-c1nc2[nH]nnc2c(=O)[nH]1 [Zaprinast] was run?
Its value is 29.8%.

Which “motility inhibition on day 3” value does the source give for CCCCCCNC(=O)n1cc(F)c(=O)[nH]c1=O [carmofur] here?
The value was less than 0%.

How did the “motility inhibition on day 3” value turn out when COC(=O)N/N=C/c1c[n+]([O-])c2ccccc2[n+]1[O-] [carbadox] was run?
Its value is 14.7%.

With CN(C(=O)CN(CCO)CC(=O)N(C)C(C)(C)Cc1ccccc1)C(C)(C)Cc1ccccc1 [oxethazaine] as the molecule, how does the “motility inhibition on day 3” value read?
The value was less than 0%.

For Cc1cc(C)nc(NS(=O)(=O)c2ccc(N)cc2)n1 [sulfamethazine], which “motility inhibition on day 3” value is on record?
Its value is less than 0%.

CC1(C)O[C@@H]2C[C@H]3[C@@H]4C[C@H](F)C5=CC(=O)C=C[C@]5(C)[C@@]4(F)[C@@H](O)C[C@]3(C)[C@]2(C(=O)CO)O1 [fluocinolone acetonide] was tested. Which “motility inhibition on day 3” value did it give?
The value was 25.3%.

With CCCCCCCC/C=C\CCCCCCCC(=O)O.NCCO [ethanolamine oleate] as the molecule, how does the “motility inhibition on day 3” value read?
Its value is 45.2%.

With COc1cc(NS(=O)(=O)c2ccc(N)cc2)ncn1 [sulfamonomethoxine] as the molecule, how does the “motility inhibition on day 3” value read?
The value was 9.98%.

With O=C(Nc1ccc([N+](=O)[O-])cc1Cl)c1ccccc1O as the molecule, how does the “motility inhibition on day 3” value read?
Its value is 99.8%.

CC(C)[C@H](N)C(=O)OCCOCn1cnc2c(=O)nc(N)[nH]c21 [valacyclovir hydrochloride] was tested. Which “motility inhibition on day 3” value did it give?
The value was 18.5%.

With C[C@@H]1C/C=C/C=C/C=C/C=C/[C@H](O[C@@H]2O[C@H](C)[C@@H](O)[C@H](N)[C@@H]2O)C[C@@H]2O[C@](O)(C[C@@H](O)C[C@H]3O[C@@H]3/C=C/C(=O)O1)C[C@H](O)[C@H]2C(=O)O [natamycin] as the molecule, how does the “motility inhibition on day 3” value read?
The value was 25%.

How did the “motility inhibition on day 3” value turn out when CCOC(=O)CN[C@@H](C(=O)N1CC[C@H]1C(=O)NCc1ccc(/C(N)=N\O)cc1)C1CCCCC1 [Ximelagatran] was run?
The value was 23.5%.

For C[C@H](CS)C(=O)N1CCC[C@H]1C(=O)O [Captopril], which “motility inhibition on day 3” value is on record?
The value was 15.9%.

With CN(Cc1cc(Br)cc(Br)c1N)C1CCCCC1 [bromhexine hydrochloride] as the molecule, how does the “motility inhibition on day 3” value read?
Its value is 13%.

How did the “motility inhibition on day 3” value turn out when CC1(C)O[C@@H]2C[C@H]3[C@@H]4C[C@H](F)C5=CC(=O)C=C[C@]5(C)[C@H]4[C@@H](O)C[C@]3(C)[C@]2(C(=O)CO)O1 [flunisolide] was run?
The value was less than 0%.

With NCCc1ccc(O)c(O)c1 [Dopamine hydrochloride] as the molecule, how does the “motility inhibition on day 3” value read?
The value was 1.18%.

How did the “motility inhibition on day 3” value turn out when CC[C@H](c1ccc(O)cc1)[C@@H](CC)c1ccc(O)cc1 [hexestrol] was run?
The value was less than 0%.

With Cc1c(Nc2ncccc2C(=O)O)cccc1C(F)(F)F [flunixin meglumine] as the molecule, how does the “motility inhibition on day 3” value read?
Its value is 0.835%.

How did the “motility inhibition on day 3” value turn out when CC(=O)OCC(=O)[C@@]1(O)CC[C@H]2[C@@H]3CCC4=CC(=O)C=C[C@]4(C)[C@H]3[C@@H](O)C[C@@]21C [prednisolone acetate] was run?
Its value is less than 0%.

For C[C@]12CCC(=O)C=C1CC[C@@H]1[C@@H]2[C@@H](O)C[C@@]2(C)[C@H]1CC[C@]2(O)C(=O)COP(=O)(O)O [hydrocortisone sodium phosphate], which “motility inhibition on day 3” value is on record?
The value was 38%.

With Cn1nnc2c(C(N)=O)ncn2c1=O [temozolomide] as the molecule, how does the “motility inhibition on day 3” value read?
The value was 3.92%.

With CC(C)(C)CC(C)(C)c1ccc(OCCOCC[N+](C)(C)Cc2ccccc2)cc1 [benzethonium chloride] as the molecule, how does the “motility inhibition on day 3” value read?
The value was 90.5%.

Which “motility inhibition on day 3” value does the source give for CCCCOc1ccc(C(=O)CCN2CCCCC2)cc1 [dyclonine hydrochloride] here?
Its value is 7.54%.

For Nc1nc(N)c2nc(-c3ccccc3)c(N)nc2n1 [Triamterene], which “motility inhibition on day 3” value is on record?
The value was 17.1%.

For C=C1CC[C@H](O)C/C1=C/C=C1\CCC[C@]2(C)[C@@H]([C@H](C)/C=C/[C@H](C)C(C)C)CC[C@@H]12 [ergocalciferol], which “motility inhibition on day 3” value is on record?
The value was 15.3%.
